The data set has as its system NFAT-β-lactamase Jurkat cells. Briefly: CCF2-AM loading capacity of NFAT-β-lactamase Jurkat cells (F.U. at 535 nm). The conditions noted are these: 50 μM, data not shown.

As to `COC(=O)C1=C(C)NC(C)=C(C(=O)OC)C1c1ccccc1[N+](=O)[O-]` [Nifedipine], the “Toxic effects (weak loading)” value was “Toxic effects were detected”.

Source of the values: patent publication US6696267B2, “Methods and compositions for screening Icrac modulators” (Warner-Lambert Company, priority 2000, dated 2004).
